According to PubChem BioAssay AID2685 (National Center for Advancing Translational Sciences (NCATS), 2010):
This is one part of the list. Shown are side measurements of this screen, not its main read-out; they come without a call. Most of these compounds were active or inconclusive in the main read-out, so they are no random draw. Potencies come from curve fits of mixed quality, noted in brackets.

Assay: qHTS Assay for Lipid Storage Modulators in Drosophila S3 Cells;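 as to cell number change: cells counted by Cell Tracker Red CMTPX staining in the red channel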
Conditions: BODIPY lipid droplet fluorescence, 18-24 h; for cell number change: measured here: cell count max response, cells fed with added oleic acid
How it was run: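 Laser-scanning cytometry quantifies lipid droplet accumulation (500–530 nm total intensity; droplet/cell object ratio) in oleic acid-fed (400 uM added) Drosophila S3 cells treated with a concentration series. 20 uM Triacsin C defined 100% inhibition.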

[1] = measured here: cell number channel AC50, cells fed with added oleic acid
[2] = measured here: lipid fluorescence (Fed channel) AC50, cells fed with added oleic acid

## CN(C)c1nc(Cl)nc(NCCOc2ccccc2)n1
[1]
  AC50: 0.0366 µM [rising, full curve, poor fit]
[2]
  AC50: 5.8 µM [rising, partial curve, poor fit]

## Cc1cc(NC(=O)CSc2nccn2-c2ccc(Cl)cc2)no1
  cell number change: -8.03%
[2]
  AC50: 0.82 µM [falling, single point]

## O=C(Nc1ccc(F)cc1)c1ccccc1NC(=O)C1CC=CCC1C(=O)O (stereo not given)
  cell number change: 9.07%
[1]
  AC50: 0.184 µM [rising, full curve, poor fit]

## O=C(Nc1nnc(-c2cccnc2)o1)c1ccccc1Cl
  cell number change: 14.4%
[1]
  AC50: 6.51 µM [rising, partial curve, poor fit]

## CCC(C)(C)C1CCc2c(sc(NC(=O)c3ccoc3C)c2C(N)=O)C1 (stereo not given)
  cell number change: 22.2%
[1]
  AC50: 0.092 µM [rising, full curve, poor fit]

## O=C(NNC(=S)NC(=O)c1ccccc1)c1ccc(O)cc1
  cell number change: 18%
[1]
  AC50: 5.8 µM [rising, partial curve, poor fit]
[2]
  AC50: 5.8 µM [rising, partial curve, poor fit]

## OCCNCc1c(OCc2ccc(Cl)cc2)ccc2ccccc12
  cell number change: -61.4%
[1]
  AC50: 23.1 µM [falling, single point]
[2]
  AC50: 20.6 µM [falling, partial curve]

## Cc1ccc2nc(COC(=O)CNC(=O)c3ccccc3)cn2c1
  cell number change: -75%
[1]
  AC50: 29.1 µM [falling, partial curve, poor fit]
[2]
  AC50: 25.9 µM [rising, single point]

## Cc1ccccc1CN1CCN(C(=O)c2cc(-c3ccncc3)nc3ccccc23)CC1
  cell number change: -9.19%
[2]
  AC50: 2.31 µM [rising, partial curve, poor fit]

## CNC(=S)NNC(=O)c1cc(-c2cccnc2)nc2ccccc12
  cell number change: 30.8%
[1]
  AC50: 20.6 µM [rising, single point]

## Cc1ccnn1CCSCC(=O)O
  cell number change: 5.95%

## COc1cc(COC(=O)c2cnc(C)cn2)c(OC)cc1Br
[2]
  AC50: 0.103 µM [falling, full curve]

## CC(C)NC(=O)c1ccccc1NC(=O)Cc1ccc(Br)cc1
  cell number change: 16.8%
[1]
  AC50: 0.82 µM [rising, full curve]

## O=C(CCn1cnc2ccccc2c1=O)Nc1nc2c(s1)CCCC2
  cell number change: -38.7%
[1]
  AC50: 29.1 µM [falling, single point]
[2]
  AC50: 32.6 µM [falling, single point]

## O=S(=O)(c1ccc2nc(SCc3ccc(Cl)cc3)[nH]c2c1)N1CCOCC1
  cell number change: -5.42%

## COc1ccc(OC)c(C(c2nnnn2C2CCCC2)N2CCc3ccccc3C2)c1 (stereo not given)
  cell number change: -7.76%
[2]
  AC50: 5.17 µM [rising, single point]

## COc1ccc(S(=O)(=O)N2CCCCC2)cc1Br
  cell number change: 7.42%

## Cc1cccc2sc(NC(=O)CN(C)S(=O)(=O)c3cccs3)nc12
  cell number change: -17.5%
[2]
  AC50: 29.1 µM [rising, single point]

## CC(OC(=O)CNC(=O)c1sc2ccccc2c1Cl)c1ccccc1 (stereo not given)
  cell number change: 36.5%
[1]
  AC50: 25.9 µM [rising, partial curve]
[2]
  AC50: 11.6 µM [falling, partial curve]

## O=C(NCC1CCCO1)c1ccc2c(=O)n(CCc3ccccc3)c(=O)[nH]c2c1 (stereo not given)
  cell number change: 18.4%
[2]
  AC50: 9.2 µM [rising, partial curve, poor fit]

## O=C(NNC1=NS(=O)(=O)c2ccccc21)c1ccc([N+](=O)[O-])cc1
  cell number change: 5.42%
[2]
  AC50: 0.116 µM [rising, single point]

## CCc1ccc(C(C)NC(=S)NCc2ccc(F)cc2)cc1 (stereo not given)
  cell number change: 47%
[2]
  AC50: 0.184 µM [rising, full curve, poor fit]

## CCCCSc1nc(N)c(NC(=O)c2ccco2)c(=O)[nH]1
  cell number change: -70.6%
[1]
  AC50: 32.6 µM [falling, single point]

## CCOC(=O)c1ccc(N2C(=O)CC(SCC(=O)Nc3ccc(S(N)(=O)=O)cc3)C2=O)cc1 (stereo not given)
  cell number change: -18.5%
[1]
  AC50: 0.146 µM [falling, full curve, poor fit]
[2]
  AC50: 3.66 µM [falling, single point]

## CSCc1c(C(=O)NCCc2ccccn2)oc2ccccc12
  cell number change: 2.38%
[2]
  AC50: 0.82 µM [rising, full curve, poor fit]

## COC(=O)c1ccsc1NC(=O)CS(=O)(=O)c1ccccc1
[1]
  AC50: 1.03 µM [rising, partial curve]

## Cc1ccc(NC(=O)COC(=O)Cn2cnc3ccccc32)c([N+](=O)[O-])c1
  cell number change: 57.8%
[1]
  AC50: 29.1 µM [rising, single point]

## CCOC(=O)c1c(NC(=O)c2cc(-c3cccc(O)c3)on2)sc(C(C)=O)c1C
[2]
  AC50: 0.206 µM [falling, full curve, poor fit]

## O=C(NCCCn1cccn1)C1CCC(=O)N(Cc2cccc(C(F)(F)F)c2)C1 (stereo not given)
  cell number change: 7.03%

## COc1ccccc1NC(=O)c1ccc2nc(C)c(C)nc2c1
  cell number change: -19.1%
[2]
  AC50: 0.651 µM [falling, full curve, poor fit]

## Cc1ccc(Cn2c(SCC(=O)NCc3ccco3)nc3ccsc3c2=O)cc1
  cell number change: -48.6%
[1]
  AC50: 23.1 µM [falling, single point]
[2]
  AC50: 6.51 µM [rising, partial curve, poor fit]

## CC(=O)c1c(N2CCN(Cc3ccccc3)CC2)nc(=S)n(Cc2ccccc2)c1C
  cell number change: -56.8%
[1]
  AC50: 18.4 µM [falling, single point]
[2]
  AC50: 29.1 µM [falling, single point]

## CCCCn1c(SCC(=O)NCc2ccc3c(c2)OCO3)nnc1C(CC)N(C)C (stereo not given)
  cell number change: 8.5%

## Cc1nn2c(N3CCN(C4CCCC4)CC3)cc(C(C)(C)C)nc2c1-c1ccccc1
  cell number change: 3.9%

## O=C1OC(C(=O)Nc2ccccc2)Cc2ccccc21 (stereo not given)
  cell number change: -16.6%
[1]
  AC50: 6.51 µM [falling, single point]
[2]
  AC50: 6.51 µM [falling, single point]

## CN(CC(=O)Nc1ccccc1Cl)C(=O)c1ccccc1SCC(=O)N1CCCC1
  cell number change: -40%
[1]
  AC50: 32.6 µM [falling, single point]
[2]
  AC50: 0.164 µM [falling, full curve, poor fit]

## COc1cc(C(=O)NCc2nnc(SCC(=O)N3CCCCCC3)o2)cc(OC)c1OC
  cell number change: 32.9%
[1]
  AC50: 29.1 µM [rising, single point]
